Results on two molecules are retold here after article PMC8370739.

Where a chain is given by its changes, count along the chain named. Numbers in names are those of the source. These are yes or no findings as the source states them, for the method shown. Binding seen in cells or lysates may run through a third protein. Some entries that bind do so weakly or less than the wild type. Where a sequence is shown, tags or fusion partners need not be part of it.

For test [1], the target named is T1, Rrp43-TAP (carboxy-terminally TAP-tagged Rrp43 core subunit) (S. cerevisiae) (UniProt P25359).
T1 sequence: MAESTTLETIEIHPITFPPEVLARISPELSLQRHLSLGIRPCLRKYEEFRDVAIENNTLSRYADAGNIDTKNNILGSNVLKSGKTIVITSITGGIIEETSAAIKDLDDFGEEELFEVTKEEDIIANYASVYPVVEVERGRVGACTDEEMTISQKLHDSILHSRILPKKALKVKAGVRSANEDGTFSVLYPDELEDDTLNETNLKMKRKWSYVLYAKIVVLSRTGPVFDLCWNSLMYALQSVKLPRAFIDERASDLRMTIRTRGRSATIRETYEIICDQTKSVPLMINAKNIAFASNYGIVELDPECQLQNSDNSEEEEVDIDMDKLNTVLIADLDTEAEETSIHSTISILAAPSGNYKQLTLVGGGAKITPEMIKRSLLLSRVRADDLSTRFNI
Nature of the test: co-IP; Rrp43-TAP precipitated with IgG Sepharose beads from lysates of RRP43-TAP rrp4Δ cells that express Rrp4-Myc or Rrp4 G226D-Myc as the sole copy of Rrp4; cells grown at 30°C; IPP150 buffer, 4°C overnight; anti-Myc immunoblot. On the technique in general: In western blotting, separated proteins are transferred to a membrane and probed.

Test [2] has as its target T1, Rrp43-TAP (carboxy-terminally TAP-tagged Rrp43 core subunit) (S. cerevisiae). Nature of the test: co-IP; Rrp43-TAP precipitated with IgG Sepharose beads from lysates of RRP43-TAP cells that contain the endogenous wild-type RRP4 gene and express Myc-tagged Rrp4 proteins; cells grown at 30°C; IPP150 buffer (10 mM Tris-HCl pH 8, 150 mM NaCl, 0.1% NP40), 4°C overnight; anti-Myc immunoblot.

The target is the same in test [3]. Nature of the test: condition: only with an endogenous, wild-type copy of RRP4 present; co-IP; Rrp43-TAP precipitated with IgG Sepharose beads from lysates of RRP43-TAP cells that contain the endogenous wild-type RRP4 gene and express Myc-tagged Rrp4 proteins; cells grown at 30°C; IPP150 buffer (10 mM Tris-HCl pH 8, 150 mM NaCl, 0.1% NP40), 4°C overnight; anti-Myc immunoblot.

B1: Rrp4-2×Myc (wild-type S. cerevisiae Rrp4, Myc-tagged) (protein, UniProt P38792 1-359)
chain: MSEVITITKRNGAFQNSSNLSYNNTGISDDENDEEDIYMHDVNSASKSESDSQIVTPGELVTDDPIWMRGHGTYFLDNMTYSSVAGTVSRVNRLLSVIPLKGRYAPETGDHVVGRIAEVGNKRWKVDIGGKQHAVLMLGSVNLPGGILRRKSESDELQMRSFLKEGDLLNAEVQSLFQDGSASLHTRSLKYGKLRNGMFCQVPSSLIVRAKNHTHNLPGNITVVLGVNGYIWLRKTSQMDLARDTPSANNSSSIKSTGPTGAVSLNPSITRLEEESSWQIYSDENDPSISNNIRQAICRYANVIKALAFCEIGITQQRIVSAYEASMVYSNVGELIEKNVMESIGSDILTAEKMRGNGN
Turning to B1, the binding entry in test [1] and in test [2] was “binds” each time.

B2: Rrp4 G226D-Myc (protein, UniProt P38792 1-359)
chain: B1 chain with G226D
On to B2, for which the results for the binding result in test [1] and in test [3] were “binds” and “no binding”, respectively.
